Data reported in PubChem BioAssay AID504834 (National Center for Advancing Translational Sciences (NCATS), 2011).
Among all 320,000 compounds or so, about 22,000 (6.9%) were called active. This list was built around the results that the source calls inconclusive (neither active nor inactive); the mix of calls is not that of the screen. Calls follow the shape of the dose curve; as a rule, active = well fitted inhibition curve with a large enough effect; inconclusive = small, poorly fitted or top-dose-only effect, or another doubt; inactive = no such curve, though single readings can be large or run the other way. A potency beside an inconclusive call is a rough fit, not a confirmed value.

Test: Primary qHTS for delayed death inhibitors of the malarial parasite plastid, 96 hour incubation
Details: P. falciparum luciferase reporter growth; series mostly up to 28.7 µM; activity change, negative = inhibition: at the top concentration
How it was run: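 Cell-based qHTS: luciferase-tagged P. falciparum in erythrocytes (2% hematocrit, 0.05% parasitemia final) incubated with compounds for 96 hours, 37 C, 5% CO2; luciferase detection reagent then added and luminescence measured.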
% is scaled to controls: 0 for no effect and ±100 for the full control effect; potency is read from the fitted curve at half-maximal effect.

SMILES | Potency | activity change, negative = inhibition
Cc1ccc(-c2nn(C)c(=O)c3ccccc23)cc1CNC(=O)/C=C/c1ccccc1 | inconclusive: 0.0041 µM [inhibitor, full curve, poor fit] | 
O=c1oc2ccc(Cl)cc2cc1-c1nnc(Nc2cccc(C(F)(F)F)c2)s1 |  | inactive: -5.71%
CCOC(=O)c1ccc2[nH]c3c(c2c1)CCCC3C(=O)OCC (configuration not stated) | inconclusive: 0.0329 µM [inhibitor, full curve, poor fit] | 
COc1ccc(Nc2oc(-c3cccs3)nc2C#N)cc1 | inconclusive: 0.0928 µM [inhibitor, full curve, poor fit] | 
CC(=O)c1ccc(N2CCN(C(=O)c3ccc(-c4ccccc4)cc3)CC2)cc1 | inconclusive: 4.65 µM [inhibitor, partial curve, poor fit] | 
N#C/C(=C\c1c(N2CCCCCC2)nc2ccccn2c1=O)C(=O)NCc1ccco1 | inconclusive: 13.1 µM [inhibitor, single point] | 
CC(OC(=O)c1ccccc1C(=O)N(C)C1CCCCC1)C(=O)NC1(C#N)CCCCC1 (configuration not stated) | inconclusive: 18.5 µM [inhibitor, single point] | 
O=C(O)c1ccc(N2CCCS2(=O)=O)cc1 |  | inactive: 54.8%
O=C1CC(c2cccs2)Cc2nc(NCC3CCCO3)ncc21 (configuration not stated) |  | inactive: 63.3%
CCOc1ccccc1Nc1cc(C)c2cccc(C)c2n1 |  | inactive: 209%
COC(=O)c1cc(-c2ccc(Br)cc2)n[nH]1 | inconclusive: 4.15 µM [inhibitor, single point] | 
Cc1ccc(C)c(C(=O)CN2C(=O)c3ccccc3S2(=O)=O)c1 |  | inactive: 307%
CCOc1ccc(NC(=O)CNS(=O)(=O)c2c(C)cc(C)cc2C)cc1 |  | inactive: 15.7%
COc1ccc(CN2C(=O)c3ccccc3C2=O)cc1C(=O)Nc1ccccc1N1CCOCC1 | inconclusive: 18.5 µM [inhibitor, single point] | 
CN1CCN(C(=O)CSc2nc(-c3ccncc3)ccc2C#N)CC1 | inconclusive: 14.7 µM [inhibitor, single point] | 
C/C(CC(=O)Nc1ccc(Cl)cc1Cl)=N\NC(N)=S | inconclusive: 9.28 µM [inhibitor, single point] | 
COc1ccc(-c2nn(-c3ccccc3)cc2CNC(=O)c2cccc([N+](=O)[O-])c2)cc1 | inconclusive: 18.5 µM [inhibitor, single point] | 
COc1cccc2cc(C(=O)OCc3ccccc3)c(=O)oc12 | inconclusive: 13.1 µM [inhibitor, partial curve, poor fit] | 
CCC1=Nc2cc(C(=O)N3CCC4(CC3)OCCO4)ccc2Sc2ccccc21 |  | inactive: 29.9%
CCN(C1CCCCC1)S(=O)(=O)c1ccc(OC)c(C)c1 |  | inactive: 11.4%
Cn1c(CNC(=O)CNC(=O)Cc2ccc(F)cc2)cc(=O)n(C)c1=O |  | inactive: 26.6%
O=C(c1cc(COc2ccc3ncccc3c2)on1)N1CCCC1 | inconclusive: 11.7 µM [inhibitor, partial curve] | 
COc1cc(/C(C)=N\NC(=O)CSc2nc3ccccc3n2C)ccc1O |  | inactive: -3.06%
CC(=O)N1CCc2cc(S(=O)(=O)NCCC(=O)NC3CCCCCC3)ccc21 |  | inactive: 85.6%
COc1ccc(C2NC(=O)NC(C)=C2C(=O)OC2CCCC(C)C2)cc1 (configuration not stated) | inconclusive: 11.7 µM [inhibitor, single point] | 
COc1ccc(C)cc1S(=O)(=O)N(CC(=O)Nc1cccc([N+](=O)[O-])c1)c1cc(C)cc(C)c1 | inconclusive: 3.7 µM [inhibitor, full curve, poor fit] | 

3 entries from above, arranged by SMILES length, falling:
SMILES | Potency | activity change, negative = inhibition
COc1ccc(CN2C(=O)c3ccccc3C2=O)cc1C(=O)Nc1ccccc1N1CCOCC1 | inconclusive: 18.5 µM [inhibitor, single point] | 
Cn1c(CNC(=O)CNC(=O)Cc2ccc(F)cc2)cc(=O)n(C)c1=O |  | inactive: 26.6%
O=C1CC(c2cccs2)Cc2nc(NCC3CCCO3)ncc21 (configuration not stated) |  | inactive: 63.3%

Remaining list, next part.

SMILES | Potency | activity change, negative = inhibition
Cc1c(C(=O)NCc2ccccc2)oc2ccc(S(=O)(=O)N3CCC4(CC3)OCCO4)cc12 |  | inactive: 50.9%
O=C(CSc1nc(-c2ccccc2)cs1)NCCN1C(=O)CSC1=O |  | inactive: 94.2%
CCc1ccc2[nH]c3nc(SCCN4CCOCC4)nnc3c2c1 | active: 9.28 µM | 
O=C(NC12CC3CC(CC(C3)C1)C2)c1cccnc1Cl | active: 11.7 µM | 
O=C(CSc1oc(-c2ccccc2)nc1S(=O)(=O)c1ccc(F)cc1)NCC1CCCO1 (configuration not stated) |  | inactive: 2.58%
N#Cc1c(N2CCCC(O)C2)nc(N)c2c(N)nc3c(c12)CC(=O)N3C12CC3CC(CC(C3)C1)C2 (configuration not stated) | active: 0.208 µM | 
COc1ccc(C(=O)NCCOc2ccccc2Cl)c(OC)c1OC |  | inactive: 6.59%
CCN(CC)S(=O)(=O)c1ccc(N2CCOCC2)c(NC(=O)Cc2cccc3ccccc23)c1 | active: 3.7 µM | 
O=C1c2ccccc2-c2nnc(-c3ccc(F)cc3)cc21 | inconclusive: 2.62 µM [inhibitor, full curve] | 
CSc1sc(-c2n[nH]c(=S)n2C)c2c1C=CCC2 | active: 5.86 µM | 
CCc1nc(SCC(=O)Nc2c(C)n(C)n(-c3ccccc3)c2=O)n[nH]1 | inconclusive: 13.1 µM [inhibitor, single point] | 
CC(C)n1cnc2c(N(C)c3ccccc3)nc(N(CCN(C)C)Cc3ccccc3)nc21 | active: 0.928 µM | 
COc1ccc(NS(=O)(=O)c2cccc(-c3nnc4n3CCCCC4)c2)cc1 | inconclusive: 3.29 µM [inhibitor, partial curve, poor fit] | 
OCCNCC(O)CN1c2ccccc2Sc2ccccc21 (configuration not stated) | inconclusive: 9.28 µM [inhibitor, partial curve, poor fit] | 
COc1ccc(OCCCC(=O)OC(C)C(=O)Nc2ccccc2[N+](=O)[O-])cc1 (configuration not stated) |  | inactive: 30.3%
N#CCCn1nnc(-c2ccccc2F)n1 |  | inactive: 41.8%
Cc1ccnc(NC2(C(F)(F)F)N=C(c3ccccc3)NC2=O)c1 (configuration not stated) |  | inactive: 54.9%
S=c1nc(-c2ccccc2)n(Cc2cccnc2)c2c1CCCC2 |  | inactive: -42.2%
CC(NCC1COc2ccccc2O1)C(=O)NCc1ccccc1 (configuration not stated) | inconclusive: 0.0029 µM [inhibitor, full curve, poor fit] | 
N/C(=N\OC(=O)c1ccc(Cl)cc1)c1ccn[nH]1 |  | inactive: 2.06%
COCCN(C(=O)C(C)C)c1nnc(-c2ccc(C(C)(C)C)cc2)s1 | inconclusive: 18.5 µM [inhibitor, single point] | 
CCC(=O)Nc1cccc2ccccc12 |  | inactive: 28.4%
Cc1c(C#N)sc2nc(-c3ccccc3)nc(N3CCCC3)c12 | inconclusive: 7.38 µM [inhibitor, partial curve, poor fit] | 
O=C(Nc1ccccc1)c1ccc(N2CCN(c3ccccc3)CC2)c(S(=O)(=O)N2CCOCC2)c1 | active: 4.15 µM | 
COc1ccccc1-c1nn(Cc2ccccc2)cc1C(=O)NCC(c1ccco1)N1CCCC1 (configuration not stated) |  | inactive: -35.1%
COc1ccccc1C(=O)N(CCN(C)C)c1nc2cc(C)cc(C)c2s1 |  | inactive: -2.24%

SMILES | Potency | activity change, negative = inhibition
CC(C)(CNC(=O)CCC1CCCC1)CNC(=O)CCC1CCCC1 | active: 10.4 µM | 
COC(=O)c1ccc(CN2CCc3ccc(NC(=O)c4ccncc4)cc3C2)cc1 |  | inactive: -1.26%
Cc1ccsc1/C=C/C1=Cc2c(sc(NC(=O)CSc3n[nH]c(N)n3)c2C#N)C(C)(C)C1 | active: 8.28 µM | 
CC(C)(C)C(=O)N1CCn2c1nc1ccccc12 | active: 2.62 µM | 
Cc1nc2sc(C#N)c(N)c2c2c1CCCC2 | active: 11.7 µM | 
COc1ccc2c(C)cc(=O)oc2c1C | active: 5.86 µM | 
CCCCN1CN(Cc2ccco2)CNC1=S | inconclusive: 18.5 µM [inhibitor, single point] | 
CC1CN(C(=O)CCC(=O)N2CCN(c3ccccn3)CC2)c2ccccc2O1 (configuration not stated) |  | inactive: -5.47%
O=c1cc(CN2CCN(c3cccc(C(F)(F)F)c3)CC2)nc2sccn12 |  | inactive: 54.2%
COc1ccc(Cn2c(=N)c(C(=O)NCC3CCCO3)cc3c(=O)n4ccccc4nc32)cc1 (configuration not stated) | inconclusive: 13.1 µM [inhibitor, single point] | 
c1ccc(-c2csc(-c3ccc(-c4csnn4)cc3)n2)cc1 |  | inactive: 160%
O=C(CSc1ccccc1)Nc1ccc(NC(=O)c2ccco2)cc1 | inconclusive: 18.5 µM [inhibitor, single point] | 
COc1ccc(-n2c(O)c(/C=N/n3cnnc3)c3ccccc3c2=O)cc1 |  | inactive: 7.09%
C#CCOc1ccc(/C=C2/C(=O)ON=C2C)cc1Br |  | inactive: 0%
CC(C)c1ccc(C(CC(=O)O)N2Cc3ccccc3C2=O)cc1 (configuration not stated) |  | inactive: 27.8%
CC(=O)NCCC(=O)N1CCCC(N(C)CCc2ccccc2)C1 (configuration not stated) | inconclusive: 18.5 µM [inhibitor, single point] | 
CC1CCC(NC(=O)CCCCn2c(=O)[nH]c3ccsc3c2=O)CC1 (configuration not stated) | inconclusive: 3.7 µM [inhibitor, full curve] | 
CCNC(=O)C/C(C)=N/NC(=O)C12CC3CC(CC(C3)C1)C2 | inconclusive: 9.28 µM [inhibitor, single point] | 
O=C(C1=C[C@H](c2ccc(C(F)(F)F)cc2)C[C@H](OCCCCO)O1)N1CCN(Cc2ccccc2)CC1 | inconclusive: 13.1 µM [inhibitor, partial curve, poor fit] | 
Cc1csc(C2=C(O)CN(c3ccc4c(c3)OCCOCCOCCOCCO4)C2=N)n1 | inconclusive: 9.28 µM [inhibitor, partial curve, poor fit] | 
Cc1cc(C)nc(-n2nc(C)cc2NC(=O)CN2CCCC2)n1 | inconclusive: 11.7 µM [inhibitor, single point] | 
COc1ccc(CCNC(=S)NC2CCN(Cc3ccccc3)CC2)cc1 | inconclusive: 16.5 µM [inhibitor, partial curve, poor fit] | 
CCn1c(SCC(=O)Nc2ccc3c(c2)OCO3)nnc1C1CC1 | inconclusive: 7.38 µM [inhibitor, partial curve, poor fit] | 
O=C(NCC(c1cccnc1)N1CCN(c2ccccc2F)CC1)c1ccccc1 (configuration not stated) | inconclusive: 10.4 µM [inhibitor, single point] | 
CCN1C(=O)/C(=C2/C=CC=CN2C)OC1=S |  | inactive: -20.8%

Exported tab-delimited: 23 of the compounds above.
SMILES	Potency	activity change, negative = inhibition
CCOC(=O)c1ccc2[nH]c3c(c2c1)CCCC3C(=O)OCC (configuration not stated)	inconclusive: 0.0329 µM [inhibitor, full curve, poor fit]	
CCOc1ccccc1Nc1cc(C)c2cccc(C)c2n1		inactive: 209%
Cc1ccc(C)c(C(=O)CN2C(=O)c3ccccc3S2(=O)=O)c1		inactive: 307%
CCOc1ccc(NC(=O)CNS(=O)(=O)c2c(C)cc(C)cc2C)cc1		inactive: 15.7%
CN1CCN(C(=O)CSc2nc(-c3ccncc3)ccc2C#N)CC1	inconclusive: 14.7 µM [inhibitor, single point]	
C/C(CC(=O)Nc1ccc(Cl)cc1Cl)=N\NC(N)=S	inconclusive: 9.28 µM [inhibitor, single point]	
O=C(c1cc(COc2ccc3ncccc3c2)on1)N1CCCC1	inconclusive: 11.7 µM [inhibitor, partial curve]	
CC(=O)N1CCc2cc(S(=O)(=O)NCCC(=O)NC3CCCCCC3)ccc21		inactive: 85.6%
O=C(NC12CC3CC(CC(C3)C1)C2)c1cccnc1Cl	active: 11.7 µM	
CSc1sc(-c2n[nH]c(=S)n2C)c2c1C=CCC2	active: 5.86 µM	
N#CCCn1nnc(-c2ccccc2F)n1		inactive: 41.8%
N/C(=N\OC(=O)c1ccc(Cl)cc1)c1ccn[nH]1		inactive: 2.06%
COCCN(C(=O)C(C)C)c1nnc(-c2ccc(C(C)(C)C)cc2)s1	inconclusive: 18.5 µM [inhibitor, single point]	
COc1ccccc1C(=O)N(CCN(C)C)c1nc2cc(C)cc(C)c2s1		inactive: -2.24%
COC(=O)c1ccc(CN2CCc3ccc(NC(=O)c4ccncc4)cc3C2)cc1		inactive: -1.26%
Cc1ccsc1/C=C/C1=Cc2c(sc(NC(=O)CSc3n[nH]c(N)n3)c2C#N)C(C)(C)C1	active: 8.28 µM	
CC(C)(C)C(=O)N1CCn2c1nc1ccccc12	active: 2.62 µM	
Cc1nc2sc(C#N)c(N)c2c2c1CCCC2	active: 11.7 µM	
COc1ccc2c(C)cc(=O)oc2c1C	active: 5.86 µM	
CCCCN1CN(Cc2ccco2)CNC1=S	inconclusive: 18.5 µM [inhibitor, single point]	
COc1ccc(Cn2c(=N)c(C(=O)NCC3CCCO3)cc3c(=O)n4ccccc4nc32)cc1 (configuration not stated)	inconclusive: 13.1 µM [inhibitor, single point]	
Cc1cc(C)nc(-n2nc(C)cc2NC(=O)CN2CCCC2)n1	inconclusive: 11.7 µM [inhibitor, single point]	
O=C(NCC(c1cccnc1)N1CCN(c2ccccc2F)CC1)c1ccccc1 (configuration not stated)	inconclusive: 10.4 µM [inhibitor, single point]	
